PubChem BioAssay AID652259 | Drosophila RNAi Screening Center, 2013
The deposit covers about 22,000 reagents; shown is an unselected part of those with a known target gene and a result. In the full data, 233 (1.1%) got an active call. 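Light values are raw, unnormalised plate reads; the ratio scores behind the reporter calls were not deposited.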 Entries without a mark were called inactive. The record does not give: the amount of reagent, the time to read-out, the dose of the treatment.

Purpose: 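Genome-wide hunt for genes that control Wingless pathway activity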 (primary screen)
Cell system: Drosophila clone 8 imaginal disc epithelial cells
Reagents: long dsRNA against Drosophila genes
Conditions: pathway stimulated by co-transfected Wingless expression plasmid
Measurement: 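Firefly luciferase from a tcf-site Wingless reporter, measured alongside co-transfected Renilla luciferase that tracks transfection; pathway stimulated by a Wingless plasmid; the firefly-to-Renilla ratio is not deposited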
Reading the numbers: firefly reporter light: higher = more Wg reporter light, before normalisation; Renilla control light: higher = more transfected or surviving cells
Active means: 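a knock-down is a candidate when at least two out of four statistical tests show it departing from its plate mean; one test alone signals a weak candidate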
Calls: active = candidate regulator (raises or lowers reporter); inactive = not a candidate

no.	target	amplicon	reporter change call, replicate 1	firefly reporter light, replicate 1	firefly reporter light, replicate 2	Renilla control light, replicate 1	Renilla control light, replicate 2
1	dnd (dead end)	DRSC16064		35382		6930	
2	Ca-beta (Ca2+-channel-protein-beta-subunit)	DRSC02406		2172	4722	1036	2812
3	Ca-beta (Ca2+-channel-protein-beta-subunit)	DRSC02407		3008	6096	1030	2470
4	Ca-beta (Ca2+-channel-protein-beta-subunit)	DRSC03285		5477	6897	1399	3344
5	Ca-beta (Ca2+-channel-protein-beta-subunit)	DRSC21432		3.66e5	4.19e5	1.72e5	1.71e5
6	CG7298	DRSC10802		3025		1314	
7	Sox21b	DRSC10025		6631		2300	
8	Sox21b	DRSC10634		7722		885	
9	Sox21b	DRSC22788		8.07e5	8.08e5	1.09e5	1.74e5
10	Usp1 (Ubiquitin specific protease 1)	DRSC14155		2404	5802	1178	3216
11	dor (deep orange)	DRSC18765		4258	6658	2182	3297
12	GluClalpha (Glutamate-gated chloride channel subunit alpha)	DRSC16680		15977		4434	
13	Cyp4aa1 (Cytochrome P450 4aa1)	DRSC07368		3349		1702	
14	CG17109	DRSC15172		26434		20677	
15	CG15696	DRSC15118		11913		2033	
16	CG33262	DRSC22893		4.83e5	5.88e5	2.08e5	1.98e5
17	CalpA (Calpain-A)	DRSC07352		4621		2009	
18	CG4338	DRSC15564		4791		2362	
19	MED26 (Mediator complex subunit 26)	DRSC17126		7617		930	
20	MED26 (Mediator complex subunit 26)	DRSC17147		28775		9677	
21	MED26 (Mediator complex subunit 26)	DRSC17148	Wg reporter activity raised (active)	7256	14138	576	1363
22	Orct (Organic cation transporter)	DRSC16777		2516	5544	1355	1894
23	raptor	DRSC18359		13378		5164	
24	Rad23	DRSC17167		2019	4705	784	1712
25	Mbs (Myosin binding subunit)	DRSC09414		2597		928	
26	Mbs (Myosin binding subunit)	DRSC10525		6013		2354	
27	Mbs (Myosin binding subunit)	DRSC10553		10153	9.19e5	5163	5.45e5
28	cag	DRSC07587		2678	7520	1435	4279
29	CG42820	DRSC02265		2354	7532	882	3465
30	rogdi	DRSC10906		2343		1221	
31	SoYb	DRSC02901		2219	6752	1147	3656
32	CG9330	DRSC11066		13057		4999	
33	pncr003:2L (retired record)	DRSC22149		1.02e6	9.49e5	2.90e5	3.05e5
34	Obp83a (Odorant-binding protein 83a)	DRSC12362		17185		4232	
35	CG9514	DRSC20190		21001		9333	
36	CG9514	DRSC20191		18341		9292	
37	Or33b (Odorant receptor 33b)	DRSC03387		2314	6787	660	3658
38	Plc21C (Phospholipase C at 21C)	DRSC00773		8321		4473	
39	CG17658	DRSC04292		2881	7792	787	2480
40	ppk6 (pickpocket 6)	DRSC06062		4426		1883	
41	CG31345	DRSC14193		17056		4036	
42	CG31345	DRSC14847		19738		5345	
43	nyo (nyobe)	DRSC15029		22810		13648	
44	nyo (nyobe)	DRSC15030		22247		16228	
45	CG11164	DRSC19392		25440		14459	
46	CG43234 (retired record)	DRSC01786		18296		9258	
47	Tb (Tubby)	DRSC15815		8906		2716	
48	CG34040	DRSC03902		14624		7367	
49	CR10102 (pseudo)	DRSC05963		4934		2226	
50	RpL12 (Ribosomal protein L12)	DRSC04344		2161	9520	337	2680
51	PGRP-LA (Peptidoglycan recognition protein LA)	DRSC10327		6632		3872	
52	PGRP-LA (Peptidoglycan recognition protein LA)	DRSC10414		7323		4380	
53	Octbeta2R (Octopamine beta2 receptor)	DRSC12917		5083		1408	
54	Octbeta2R (Octopamine beta2 receptor)	DRSC15350		20886		6146	
55	Octbeta2R (Octopamine beta2 receptor)	DRSC16165		14533		4096	
56	Wdr37 (WD repeat domain 37)	DRSC14500		2583	7200	1014	2180
57	CG17712	DRSC00266		13900		6464	
58	CG13544	DRSC04186		2608	5848	774	2391
59	Scox (Synthesis of cytochrome c oxidase)	DRSC03117		2802	8186	800	2314
60	CG34426	DRSC09977		1462	5466	1448	2016
61	Culd (CUB and LDLa domain)	DRSC10262		6599		2146	
62	CG8665	DRSC03098		4016	11749	1072	4278
63	CG5439	DRSC02861		6310		2310	
64	Lamp1	DRSC03727		2185	5125	788	2021
65	CG14245	DRSC14740		7033		3088	
66	CG9372	DRSC11068		15840		4857	
67	CG8089	DRSC07074		6620		2288	
68	CG14244	DRSC14739		7431		2887	
69	Muc30E (Mucin 30E)	DRSC01101		22780		11185	
70	tay (tay bridge)	DRSC20142		1835	5901	784	1849
71	santa-maria	DRSC00994		15078		6825	
72	santa-maria	DRSC02180		10240		4343	
73	CG14664	DRSC12250		12144		2482	
